Some results were stated once for a whole list of compounds, not compound by compound.
Target: MC4-R (Homo sapiens, UniProt P32245)
Test: cAMP Scintillation Proximity Assay in cells expressing MC4-R
Format: cell-based
Settings: intercellular cAMP measured by SPA kit

Amino acid sequences for entries named in this document (tags omitted).
UniProt P32245, whole entry, species assumed: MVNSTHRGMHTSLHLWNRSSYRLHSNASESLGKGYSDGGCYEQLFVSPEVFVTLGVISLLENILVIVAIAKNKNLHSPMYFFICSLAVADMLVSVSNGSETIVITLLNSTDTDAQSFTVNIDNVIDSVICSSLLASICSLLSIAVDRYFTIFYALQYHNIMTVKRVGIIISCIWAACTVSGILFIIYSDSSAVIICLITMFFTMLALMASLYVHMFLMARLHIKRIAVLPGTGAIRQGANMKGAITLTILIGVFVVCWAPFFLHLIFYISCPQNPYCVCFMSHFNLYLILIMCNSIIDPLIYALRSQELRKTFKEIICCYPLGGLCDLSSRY

| Compound | −log EC50 |
| --- | --- |
| COc1ccc(CC(COCc2cccc(Br)c2)C(=O)Nc2ccc(NC(=NC3CC4CC(C3C)C4(C)C)N3CC(C)NC(C)C3)cc2)c(F)c1 [Example 132, (2S)-3-{[3-bromophenyl)methyl]oxy}-N-{4-[((Z)-[(3R,5S)-3,5-dimethylpiperazine-1-yl]{[(1S,2S,3S,5R)-2,6,6-trimethylbicyclo[3.1.1]hept-3-yl]imino}methyl)amino]phenyl}-2-{[2-fluoro-4-(methyloxy)phenyl]methyl}propanamide] | above 3 |
| COc1ccc(CC(COCc2ccc(C)cc2)C(=O)Nc2ccc(NC(=NC3CC4CC(C3C)C4(C)C)N3CC(C)NC(C)C3)cc2)c(F)c1 [Example 133, (2S)-N-{4-[((Z)-[(3R,5S)-3,5-dimethylpiperazin-1-yl]{[(1S,2S,3S,5R)-2,6,6-trimethylbicyclo[3.1.1]hept-3-yl]imino}methyl)amino]phenyl}-3-[2-fluoro-4-(methyloxy)phenyl]-2-{[(4-methylphenyl)methyl]oxy}methyl)propanamide] | above 3 |
| COc1ccc(C[C@@H](COCc2ccc(Cl)cc2F)C(=O)Nc2ccc(N/C(=N/[C@H]3C[C@H]4C[C@@H]([C@@H]3C)C4(C)C)N3C[C@@H](C)N[C@@H](C)C3)cc2)c(F)c1 [Example 135, (2S)-3-{[(4-chloro-2-fluorophenyl)methyl]oxy}-N-{4-[((Z)[(3R,5S)-3,5-dimethylpiperazin-1-yl]{[(1S,2S,3S,5R)-2,6,6-trimethylbicyclo[3.1.1]hept-3-yl]imino}methyl)amino]phenyl}-2-{[2-fluoro-4-(methyloxy)phenyl]methyl}propanamide] | above 3 |
| (2S)-N-{4-[((Z)-[(3R,5S)-3,5-dimethylpiperazin-1-yl]{[(1S,2S,3S,5R)-2,6,6-trimethylbicyclo[3.1.1]hept-3-yl]imino}methyl)amino]phenyl}-4-[2-fluoro-4-(methyloxy)phenyl]-2-({[(4-fluorophenyl)methyl]oxy}methyl)propanamide [Example 134] | above 3 |
| N-{4-[((Z)-[(3R,5S)-3,5-dimethylpiperazin-1-yl]{[(1S,2S,3S,5R)-2,6,6-trimethylbicyclo[3.1.1]hept-3-yl]imino}methyl)amino]phenyl}-2-fluoro-O-methyl-D-tyrosinamide [Example 67] | above 3 |

From US20030195187A1, “Guanidino compounds” (CHIRON CORPORATION, priority 2002, published 2003)
